Results are given in words; binding and its absence hold for the method and conditions named. For part of these data: In cells and extracts the contact can be indirect. Some entries that bind do so weakly or less than the wild type.

By UniProt entry, the sequences of proteins in these tests, tags left out.
UniProt P70288: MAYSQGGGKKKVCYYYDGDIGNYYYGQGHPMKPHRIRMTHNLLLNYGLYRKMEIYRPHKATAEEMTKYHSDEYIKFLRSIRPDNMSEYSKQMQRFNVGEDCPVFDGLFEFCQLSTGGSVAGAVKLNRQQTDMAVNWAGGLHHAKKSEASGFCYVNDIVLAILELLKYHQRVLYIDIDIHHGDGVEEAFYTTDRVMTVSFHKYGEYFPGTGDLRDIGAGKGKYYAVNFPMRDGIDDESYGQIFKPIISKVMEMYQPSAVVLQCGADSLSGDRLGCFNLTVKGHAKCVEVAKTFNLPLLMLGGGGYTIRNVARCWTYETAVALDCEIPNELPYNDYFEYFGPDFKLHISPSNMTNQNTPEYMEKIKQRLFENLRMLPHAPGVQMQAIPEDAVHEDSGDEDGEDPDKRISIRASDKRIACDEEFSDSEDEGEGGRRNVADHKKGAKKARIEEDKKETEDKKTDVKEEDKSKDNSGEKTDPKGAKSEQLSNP
UniProt Q8VHR5: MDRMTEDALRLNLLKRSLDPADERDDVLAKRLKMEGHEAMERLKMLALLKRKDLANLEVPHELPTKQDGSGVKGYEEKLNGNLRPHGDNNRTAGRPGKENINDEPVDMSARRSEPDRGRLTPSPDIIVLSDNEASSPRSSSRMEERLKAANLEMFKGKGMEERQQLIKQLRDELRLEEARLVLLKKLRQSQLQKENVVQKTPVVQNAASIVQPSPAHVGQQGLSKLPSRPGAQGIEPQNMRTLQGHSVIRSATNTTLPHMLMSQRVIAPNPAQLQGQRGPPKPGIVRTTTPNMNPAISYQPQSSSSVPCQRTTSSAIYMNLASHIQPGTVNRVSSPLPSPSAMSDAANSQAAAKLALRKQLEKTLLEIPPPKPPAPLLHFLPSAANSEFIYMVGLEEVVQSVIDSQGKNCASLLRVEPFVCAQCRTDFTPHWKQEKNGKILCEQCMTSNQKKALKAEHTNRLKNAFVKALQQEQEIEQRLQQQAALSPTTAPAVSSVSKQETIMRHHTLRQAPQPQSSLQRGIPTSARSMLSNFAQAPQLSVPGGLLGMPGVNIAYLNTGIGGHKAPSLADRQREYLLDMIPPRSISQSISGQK
UniProt Q9Z2D8: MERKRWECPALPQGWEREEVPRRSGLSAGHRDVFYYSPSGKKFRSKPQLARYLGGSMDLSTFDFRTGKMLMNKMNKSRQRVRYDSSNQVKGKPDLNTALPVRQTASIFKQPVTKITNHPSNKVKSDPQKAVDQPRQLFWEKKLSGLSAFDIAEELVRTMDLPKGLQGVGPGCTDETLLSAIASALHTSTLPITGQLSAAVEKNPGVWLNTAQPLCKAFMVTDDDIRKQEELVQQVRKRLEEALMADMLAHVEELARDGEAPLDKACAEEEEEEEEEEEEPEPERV
UniProt Q60973: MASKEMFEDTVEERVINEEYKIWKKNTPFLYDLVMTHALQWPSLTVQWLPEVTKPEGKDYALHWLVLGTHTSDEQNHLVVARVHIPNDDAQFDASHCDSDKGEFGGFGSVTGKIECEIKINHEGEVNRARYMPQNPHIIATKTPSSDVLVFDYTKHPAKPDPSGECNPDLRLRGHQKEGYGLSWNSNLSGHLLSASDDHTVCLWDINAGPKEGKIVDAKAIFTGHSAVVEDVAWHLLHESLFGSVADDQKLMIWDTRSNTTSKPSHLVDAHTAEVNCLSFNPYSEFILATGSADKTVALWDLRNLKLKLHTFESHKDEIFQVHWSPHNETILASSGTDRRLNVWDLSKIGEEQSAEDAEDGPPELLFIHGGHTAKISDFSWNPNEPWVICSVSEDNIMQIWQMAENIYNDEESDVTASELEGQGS
UniProt A2A8L1: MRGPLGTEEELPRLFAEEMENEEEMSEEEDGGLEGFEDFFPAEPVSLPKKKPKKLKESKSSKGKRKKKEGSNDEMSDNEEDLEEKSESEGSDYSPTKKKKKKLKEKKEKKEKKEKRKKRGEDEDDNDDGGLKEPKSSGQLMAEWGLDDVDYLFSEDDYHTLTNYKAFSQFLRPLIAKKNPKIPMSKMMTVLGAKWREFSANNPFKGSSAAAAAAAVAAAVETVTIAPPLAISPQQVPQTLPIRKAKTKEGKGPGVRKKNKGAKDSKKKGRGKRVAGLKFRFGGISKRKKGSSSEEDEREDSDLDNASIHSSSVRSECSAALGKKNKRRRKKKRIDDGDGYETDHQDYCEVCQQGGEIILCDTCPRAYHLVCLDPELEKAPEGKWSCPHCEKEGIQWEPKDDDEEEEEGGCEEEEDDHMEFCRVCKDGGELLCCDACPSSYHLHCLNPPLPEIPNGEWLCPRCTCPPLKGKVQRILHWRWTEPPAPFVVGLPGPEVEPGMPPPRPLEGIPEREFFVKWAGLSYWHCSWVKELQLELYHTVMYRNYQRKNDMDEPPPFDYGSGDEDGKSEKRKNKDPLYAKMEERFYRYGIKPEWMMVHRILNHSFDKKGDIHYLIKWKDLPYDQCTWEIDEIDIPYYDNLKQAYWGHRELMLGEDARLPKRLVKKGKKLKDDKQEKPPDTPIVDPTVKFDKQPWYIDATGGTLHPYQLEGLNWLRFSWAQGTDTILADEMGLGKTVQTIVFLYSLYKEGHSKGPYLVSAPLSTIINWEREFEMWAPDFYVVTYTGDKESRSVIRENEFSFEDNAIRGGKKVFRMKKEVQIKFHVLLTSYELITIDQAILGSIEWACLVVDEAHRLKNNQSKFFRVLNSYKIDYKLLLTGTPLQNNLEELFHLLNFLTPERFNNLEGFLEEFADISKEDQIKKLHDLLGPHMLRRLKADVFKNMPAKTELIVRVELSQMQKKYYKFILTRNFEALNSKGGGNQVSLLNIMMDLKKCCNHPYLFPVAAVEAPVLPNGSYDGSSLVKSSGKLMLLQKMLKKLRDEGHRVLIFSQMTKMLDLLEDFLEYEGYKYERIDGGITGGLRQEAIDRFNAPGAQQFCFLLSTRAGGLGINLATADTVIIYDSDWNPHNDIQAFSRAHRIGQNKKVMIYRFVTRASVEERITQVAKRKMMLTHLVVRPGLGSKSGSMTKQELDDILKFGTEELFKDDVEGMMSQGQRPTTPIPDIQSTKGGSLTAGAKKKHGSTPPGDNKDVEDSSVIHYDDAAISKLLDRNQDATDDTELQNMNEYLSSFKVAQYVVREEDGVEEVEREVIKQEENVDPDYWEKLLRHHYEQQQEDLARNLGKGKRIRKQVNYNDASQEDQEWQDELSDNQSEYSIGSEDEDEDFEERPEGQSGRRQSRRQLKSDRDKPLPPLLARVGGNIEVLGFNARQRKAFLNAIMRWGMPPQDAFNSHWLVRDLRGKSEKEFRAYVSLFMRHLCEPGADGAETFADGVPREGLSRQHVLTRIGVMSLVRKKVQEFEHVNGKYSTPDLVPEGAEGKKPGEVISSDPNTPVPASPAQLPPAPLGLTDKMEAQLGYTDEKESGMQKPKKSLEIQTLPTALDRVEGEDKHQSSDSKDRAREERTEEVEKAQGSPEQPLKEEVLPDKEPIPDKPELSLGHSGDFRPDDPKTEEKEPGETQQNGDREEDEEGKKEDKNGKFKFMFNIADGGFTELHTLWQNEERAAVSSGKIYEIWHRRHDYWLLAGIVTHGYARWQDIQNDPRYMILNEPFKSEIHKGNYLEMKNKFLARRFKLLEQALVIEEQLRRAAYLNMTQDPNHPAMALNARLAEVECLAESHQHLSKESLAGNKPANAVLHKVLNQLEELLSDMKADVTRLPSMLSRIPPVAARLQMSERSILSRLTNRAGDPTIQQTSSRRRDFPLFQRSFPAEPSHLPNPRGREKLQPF
UniProt Q92769: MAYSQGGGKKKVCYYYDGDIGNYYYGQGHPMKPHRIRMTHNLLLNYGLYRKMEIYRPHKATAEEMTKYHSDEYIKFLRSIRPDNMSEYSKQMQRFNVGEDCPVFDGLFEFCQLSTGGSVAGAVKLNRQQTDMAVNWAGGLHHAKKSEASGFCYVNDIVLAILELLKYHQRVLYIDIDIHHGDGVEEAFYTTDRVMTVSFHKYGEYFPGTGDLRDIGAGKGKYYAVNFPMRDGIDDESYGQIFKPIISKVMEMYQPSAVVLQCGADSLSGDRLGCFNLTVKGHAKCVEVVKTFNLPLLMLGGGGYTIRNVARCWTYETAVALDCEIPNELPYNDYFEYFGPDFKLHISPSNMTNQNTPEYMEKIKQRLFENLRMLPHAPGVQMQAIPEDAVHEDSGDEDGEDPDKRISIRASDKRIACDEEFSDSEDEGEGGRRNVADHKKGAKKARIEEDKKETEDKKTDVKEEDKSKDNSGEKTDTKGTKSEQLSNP
UniProt Q8TDI0: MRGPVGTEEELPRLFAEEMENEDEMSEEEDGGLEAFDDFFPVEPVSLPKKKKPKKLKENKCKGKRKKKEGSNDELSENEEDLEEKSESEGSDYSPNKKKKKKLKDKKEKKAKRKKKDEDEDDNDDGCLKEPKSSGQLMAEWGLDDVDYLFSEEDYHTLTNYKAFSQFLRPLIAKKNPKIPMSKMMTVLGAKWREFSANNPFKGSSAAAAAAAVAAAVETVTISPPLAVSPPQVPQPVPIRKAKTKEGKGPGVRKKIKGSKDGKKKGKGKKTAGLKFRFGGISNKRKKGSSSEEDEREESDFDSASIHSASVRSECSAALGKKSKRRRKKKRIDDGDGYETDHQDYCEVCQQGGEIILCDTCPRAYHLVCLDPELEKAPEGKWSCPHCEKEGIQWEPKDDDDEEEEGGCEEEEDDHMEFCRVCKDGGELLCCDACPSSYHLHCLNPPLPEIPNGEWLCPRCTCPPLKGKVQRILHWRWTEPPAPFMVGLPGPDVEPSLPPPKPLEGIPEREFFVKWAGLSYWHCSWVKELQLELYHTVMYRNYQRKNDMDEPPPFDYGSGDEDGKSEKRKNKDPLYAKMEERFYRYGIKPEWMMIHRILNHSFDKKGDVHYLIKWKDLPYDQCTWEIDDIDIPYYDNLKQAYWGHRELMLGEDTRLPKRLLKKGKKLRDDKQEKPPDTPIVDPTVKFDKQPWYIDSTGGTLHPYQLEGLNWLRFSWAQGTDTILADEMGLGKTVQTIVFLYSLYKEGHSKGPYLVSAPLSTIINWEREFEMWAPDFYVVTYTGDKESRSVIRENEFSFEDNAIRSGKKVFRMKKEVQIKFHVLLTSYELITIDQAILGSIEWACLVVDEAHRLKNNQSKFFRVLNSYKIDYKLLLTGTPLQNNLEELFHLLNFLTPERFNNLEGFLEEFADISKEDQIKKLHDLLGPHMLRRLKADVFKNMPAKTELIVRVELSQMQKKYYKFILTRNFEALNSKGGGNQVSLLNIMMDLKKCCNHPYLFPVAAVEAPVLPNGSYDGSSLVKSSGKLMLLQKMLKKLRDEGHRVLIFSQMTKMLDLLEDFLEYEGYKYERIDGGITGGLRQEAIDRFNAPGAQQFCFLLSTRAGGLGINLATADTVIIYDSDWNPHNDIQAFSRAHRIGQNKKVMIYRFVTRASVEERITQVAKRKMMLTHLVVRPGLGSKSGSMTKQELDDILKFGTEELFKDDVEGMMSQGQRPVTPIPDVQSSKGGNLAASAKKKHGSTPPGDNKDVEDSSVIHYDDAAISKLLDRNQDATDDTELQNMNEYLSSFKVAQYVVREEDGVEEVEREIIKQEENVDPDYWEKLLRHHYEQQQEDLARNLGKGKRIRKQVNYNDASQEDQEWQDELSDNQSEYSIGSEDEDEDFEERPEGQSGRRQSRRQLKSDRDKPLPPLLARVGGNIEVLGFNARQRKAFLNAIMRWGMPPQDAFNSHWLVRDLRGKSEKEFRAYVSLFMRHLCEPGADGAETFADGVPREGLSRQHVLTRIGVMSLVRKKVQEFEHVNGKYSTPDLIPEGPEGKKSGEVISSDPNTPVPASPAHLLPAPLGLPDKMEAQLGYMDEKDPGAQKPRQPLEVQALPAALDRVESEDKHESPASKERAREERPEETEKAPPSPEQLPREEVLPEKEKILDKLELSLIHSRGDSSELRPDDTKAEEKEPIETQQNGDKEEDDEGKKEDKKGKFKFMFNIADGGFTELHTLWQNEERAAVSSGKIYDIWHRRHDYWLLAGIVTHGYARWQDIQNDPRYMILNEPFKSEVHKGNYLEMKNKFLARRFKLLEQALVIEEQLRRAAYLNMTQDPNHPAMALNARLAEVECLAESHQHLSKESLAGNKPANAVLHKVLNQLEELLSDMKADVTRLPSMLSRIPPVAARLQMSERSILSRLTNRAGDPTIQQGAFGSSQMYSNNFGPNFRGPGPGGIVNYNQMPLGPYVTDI

Our source for the binding values is paper PMC3172237.

For assay [1], the target named is HDAC1 (human (endogenous in HeLa)) (UniProt Q13547). As to the kind of experiment: co-IP; extracts of HeLa cells transfected with human CHD5 cDNA; immunoprecipitated and immunoblotted with the indicated antisera. For orientation: A western blot detects proteins with antibodies after separation by electrophoresis.
In assay [2] the target is HDAC2 (mouse (endogenous in mouse brain)) (UniProt P70288). The assay is described as follows: co-IP; mouse brain nuclear extract in RIPA buffer; antibodies (anti-HDAC1, anti-HDAC2, anti-p66 Beta, CHD5 antiserum) crosslinked to protein A beads; immunoblot for CHD5, HDAC1 or HDAC2.
Assay [3] deals with p66ß (mouse (endogenous in mouse brain)) (UniProt Q8VHR5). The assay is described as above.
Assay [4] has as its target MBD3 (mouse (endogenous in mouse brain)) (UniProt Q9Z2D8). The assay is described as follows: co-IP; mouse brain nuclear extract diluted into CoIP Buffer II (100 mM NaCl, 20 mM Hepes pH 7.5, 1 mM EDTA, 10% glycerol, 0.1% NP40); antibodies not crosslinked to the protein A beads; immunoblot for CHD5.
The target in assay [5] is MTA3 (mouse (endogenous in mouse brain)) (UniProt Q924K8). Described as above.
Assay [6] deals with RbAp46 (mouse (endogenous in mouse brain)) (UniProt Q60973). Described as above.
The target in assay [7] is CHD5 (mouse (endogenous in mouse brain)) (UniProt A2A8L1). As to the kind of experiment: SEC; mouse brain nuclear extract dialyzed against PBS, 0.2 mg loaded onto a Sephadex 200 column; fractions analysed by western blot. A general note: In gel filtration, larger molecules generally elute earlier.
Assay [8] shares this target. The assay is described as follows: co-IP; mouse brain nuclear extract in RIPA buffer; antibodies (anti-HDAC1, anti-HDAC2, anti-p66 Beta, CHD5 antiserum) crosslinked to protein A beads; immunoblot for CHD5, HDAC1 or HDAC2.
Assay [9] has as its target HDAC2 (human (endogenous in HeLa)) (UniProt Q92769). The assay is described as follows: co-IP; extracts of HeLa cells transfected with human CHD5 cDNA; immunoprecipitated and immunoblotted with the indicated antisera.

For CHD4 (from UniProt Q14839 1-1912), in assay [1], the binding result is “binds”.
For CHD5 (from UniProt A2A8L1 1-1946), the binding result is listed as “binds” in [2]; “binds” in assay [3]; “binds weakly” in assay [4]; “binds” in [5]; “binds” in assay [6].
HDAC2 (from UniProt P70288 1-488): the binding result in [7], in assay [8] and in assay [3] was “binds” in each case.
human CHD5 (from UniProt Q8TDI0 1-1954): the binding result in assay [1] and in [9] was “binds” throughout.
Turning to p66ß (from UniProt Q8VHR5 1-594), in assay [7], the binding result is “binds”.
